The supplement of paper PMC10849652
Some of the results follow.

Amino acid sequences for entries named in this document (tags omitted). A change or cut given only in a name is not applied to a line headed by its entry.
UniProt Q96IV6: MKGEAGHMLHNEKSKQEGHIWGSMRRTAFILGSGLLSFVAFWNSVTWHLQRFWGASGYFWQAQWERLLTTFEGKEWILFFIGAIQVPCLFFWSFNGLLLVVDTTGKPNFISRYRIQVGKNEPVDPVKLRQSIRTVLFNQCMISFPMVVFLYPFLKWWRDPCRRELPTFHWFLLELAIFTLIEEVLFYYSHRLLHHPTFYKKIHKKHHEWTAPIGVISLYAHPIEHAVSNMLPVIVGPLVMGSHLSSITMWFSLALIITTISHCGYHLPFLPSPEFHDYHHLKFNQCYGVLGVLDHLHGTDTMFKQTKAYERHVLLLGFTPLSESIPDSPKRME
UniProt P35916, whole entry, looked up: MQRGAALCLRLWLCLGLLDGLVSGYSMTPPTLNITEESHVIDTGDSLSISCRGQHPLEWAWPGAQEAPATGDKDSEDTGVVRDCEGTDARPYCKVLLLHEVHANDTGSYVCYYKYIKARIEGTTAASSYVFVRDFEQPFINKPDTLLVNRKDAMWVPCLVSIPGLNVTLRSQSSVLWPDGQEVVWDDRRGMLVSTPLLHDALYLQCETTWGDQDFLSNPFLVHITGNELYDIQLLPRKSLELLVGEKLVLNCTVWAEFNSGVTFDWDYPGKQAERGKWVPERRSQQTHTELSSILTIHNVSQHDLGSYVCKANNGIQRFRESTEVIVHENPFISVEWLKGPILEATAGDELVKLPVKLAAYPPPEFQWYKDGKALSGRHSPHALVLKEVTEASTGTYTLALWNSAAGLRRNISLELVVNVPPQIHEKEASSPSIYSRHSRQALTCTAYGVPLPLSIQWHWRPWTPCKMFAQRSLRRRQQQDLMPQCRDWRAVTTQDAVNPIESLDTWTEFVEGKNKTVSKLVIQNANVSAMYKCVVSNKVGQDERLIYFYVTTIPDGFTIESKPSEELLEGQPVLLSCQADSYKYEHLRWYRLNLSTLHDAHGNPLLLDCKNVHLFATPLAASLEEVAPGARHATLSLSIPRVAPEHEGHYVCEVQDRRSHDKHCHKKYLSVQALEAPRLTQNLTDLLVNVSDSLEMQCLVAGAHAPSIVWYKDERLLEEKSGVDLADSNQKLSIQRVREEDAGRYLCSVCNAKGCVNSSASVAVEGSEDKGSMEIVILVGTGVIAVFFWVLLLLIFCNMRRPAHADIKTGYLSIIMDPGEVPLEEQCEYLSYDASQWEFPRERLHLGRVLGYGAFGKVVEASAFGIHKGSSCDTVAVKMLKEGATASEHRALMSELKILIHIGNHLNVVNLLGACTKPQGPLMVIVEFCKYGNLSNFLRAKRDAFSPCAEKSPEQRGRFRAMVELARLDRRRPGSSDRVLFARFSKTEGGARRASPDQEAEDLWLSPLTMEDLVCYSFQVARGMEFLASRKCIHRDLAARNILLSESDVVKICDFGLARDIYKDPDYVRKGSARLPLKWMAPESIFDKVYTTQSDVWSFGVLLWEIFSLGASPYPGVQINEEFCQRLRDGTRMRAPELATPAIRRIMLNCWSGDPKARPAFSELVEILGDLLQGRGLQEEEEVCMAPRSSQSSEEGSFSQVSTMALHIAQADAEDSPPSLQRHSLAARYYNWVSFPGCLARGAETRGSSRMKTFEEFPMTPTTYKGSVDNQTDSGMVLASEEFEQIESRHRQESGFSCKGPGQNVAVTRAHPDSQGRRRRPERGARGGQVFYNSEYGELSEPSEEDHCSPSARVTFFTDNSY
UniProt Q96HJ9: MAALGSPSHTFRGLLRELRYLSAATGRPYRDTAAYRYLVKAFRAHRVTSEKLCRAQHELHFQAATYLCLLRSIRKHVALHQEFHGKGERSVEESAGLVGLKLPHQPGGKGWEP
UniProt Q96PY5, whole entry, looked up: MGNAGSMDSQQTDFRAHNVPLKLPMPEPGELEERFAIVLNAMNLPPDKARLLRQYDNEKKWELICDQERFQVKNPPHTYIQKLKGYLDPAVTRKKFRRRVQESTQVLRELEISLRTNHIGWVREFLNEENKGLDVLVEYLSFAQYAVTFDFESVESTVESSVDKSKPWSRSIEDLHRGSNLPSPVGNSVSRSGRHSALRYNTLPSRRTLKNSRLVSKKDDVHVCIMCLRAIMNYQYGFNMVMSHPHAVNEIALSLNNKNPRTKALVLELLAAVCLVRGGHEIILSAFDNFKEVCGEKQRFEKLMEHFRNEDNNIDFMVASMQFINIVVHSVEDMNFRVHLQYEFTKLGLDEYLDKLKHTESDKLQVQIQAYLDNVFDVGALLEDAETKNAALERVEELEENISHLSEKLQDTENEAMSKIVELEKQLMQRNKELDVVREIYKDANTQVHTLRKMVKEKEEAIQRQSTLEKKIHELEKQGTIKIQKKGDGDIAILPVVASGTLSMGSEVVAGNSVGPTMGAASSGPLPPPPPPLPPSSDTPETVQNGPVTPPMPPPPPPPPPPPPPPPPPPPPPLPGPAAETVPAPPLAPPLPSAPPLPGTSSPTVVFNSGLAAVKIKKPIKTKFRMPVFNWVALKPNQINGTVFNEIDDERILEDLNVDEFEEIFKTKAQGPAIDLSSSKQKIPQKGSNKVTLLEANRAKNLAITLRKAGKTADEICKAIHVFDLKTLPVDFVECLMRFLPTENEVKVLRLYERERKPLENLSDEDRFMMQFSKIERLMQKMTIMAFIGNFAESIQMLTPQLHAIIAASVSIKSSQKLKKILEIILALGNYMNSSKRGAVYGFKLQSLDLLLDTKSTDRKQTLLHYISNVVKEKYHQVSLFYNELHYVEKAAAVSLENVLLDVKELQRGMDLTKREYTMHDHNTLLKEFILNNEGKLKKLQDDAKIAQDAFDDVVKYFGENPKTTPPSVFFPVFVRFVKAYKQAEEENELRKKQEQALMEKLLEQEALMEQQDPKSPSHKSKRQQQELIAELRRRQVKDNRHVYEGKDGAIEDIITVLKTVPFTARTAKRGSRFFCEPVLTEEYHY
UniProt Q6PJ61: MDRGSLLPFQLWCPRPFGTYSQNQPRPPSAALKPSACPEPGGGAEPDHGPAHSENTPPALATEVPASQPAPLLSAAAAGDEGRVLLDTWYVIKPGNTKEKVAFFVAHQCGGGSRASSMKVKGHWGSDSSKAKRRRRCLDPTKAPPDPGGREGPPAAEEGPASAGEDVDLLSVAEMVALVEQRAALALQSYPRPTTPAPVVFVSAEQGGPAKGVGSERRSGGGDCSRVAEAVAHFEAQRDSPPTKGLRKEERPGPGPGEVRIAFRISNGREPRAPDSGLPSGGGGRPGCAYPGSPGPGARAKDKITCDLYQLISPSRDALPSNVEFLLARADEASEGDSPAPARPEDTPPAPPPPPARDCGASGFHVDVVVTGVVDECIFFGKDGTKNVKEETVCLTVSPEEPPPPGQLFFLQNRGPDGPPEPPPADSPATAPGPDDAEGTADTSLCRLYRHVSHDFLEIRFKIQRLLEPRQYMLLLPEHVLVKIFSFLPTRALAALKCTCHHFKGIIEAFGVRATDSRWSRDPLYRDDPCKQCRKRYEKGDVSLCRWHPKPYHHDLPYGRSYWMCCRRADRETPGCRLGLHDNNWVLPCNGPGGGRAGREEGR
UniProt Q00597: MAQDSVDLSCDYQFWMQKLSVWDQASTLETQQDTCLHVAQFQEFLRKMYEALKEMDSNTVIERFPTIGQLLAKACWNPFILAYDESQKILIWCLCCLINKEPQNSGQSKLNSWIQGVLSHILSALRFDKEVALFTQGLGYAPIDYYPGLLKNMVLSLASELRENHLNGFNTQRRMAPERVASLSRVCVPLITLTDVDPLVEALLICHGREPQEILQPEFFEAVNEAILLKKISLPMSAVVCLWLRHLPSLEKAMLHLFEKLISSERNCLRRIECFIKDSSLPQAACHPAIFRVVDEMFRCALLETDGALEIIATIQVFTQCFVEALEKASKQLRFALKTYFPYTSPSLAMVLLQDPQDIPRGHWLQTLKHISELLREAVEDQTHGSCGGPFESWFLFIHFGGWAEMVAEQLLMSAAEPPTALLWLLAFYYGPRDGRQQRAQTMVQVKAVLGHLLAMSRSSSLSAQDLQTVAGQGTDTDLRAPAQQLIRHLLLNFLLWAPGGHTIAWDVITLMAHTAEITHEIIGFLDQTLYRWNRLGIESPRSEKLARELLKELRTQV
UniProt Q9Y2H6: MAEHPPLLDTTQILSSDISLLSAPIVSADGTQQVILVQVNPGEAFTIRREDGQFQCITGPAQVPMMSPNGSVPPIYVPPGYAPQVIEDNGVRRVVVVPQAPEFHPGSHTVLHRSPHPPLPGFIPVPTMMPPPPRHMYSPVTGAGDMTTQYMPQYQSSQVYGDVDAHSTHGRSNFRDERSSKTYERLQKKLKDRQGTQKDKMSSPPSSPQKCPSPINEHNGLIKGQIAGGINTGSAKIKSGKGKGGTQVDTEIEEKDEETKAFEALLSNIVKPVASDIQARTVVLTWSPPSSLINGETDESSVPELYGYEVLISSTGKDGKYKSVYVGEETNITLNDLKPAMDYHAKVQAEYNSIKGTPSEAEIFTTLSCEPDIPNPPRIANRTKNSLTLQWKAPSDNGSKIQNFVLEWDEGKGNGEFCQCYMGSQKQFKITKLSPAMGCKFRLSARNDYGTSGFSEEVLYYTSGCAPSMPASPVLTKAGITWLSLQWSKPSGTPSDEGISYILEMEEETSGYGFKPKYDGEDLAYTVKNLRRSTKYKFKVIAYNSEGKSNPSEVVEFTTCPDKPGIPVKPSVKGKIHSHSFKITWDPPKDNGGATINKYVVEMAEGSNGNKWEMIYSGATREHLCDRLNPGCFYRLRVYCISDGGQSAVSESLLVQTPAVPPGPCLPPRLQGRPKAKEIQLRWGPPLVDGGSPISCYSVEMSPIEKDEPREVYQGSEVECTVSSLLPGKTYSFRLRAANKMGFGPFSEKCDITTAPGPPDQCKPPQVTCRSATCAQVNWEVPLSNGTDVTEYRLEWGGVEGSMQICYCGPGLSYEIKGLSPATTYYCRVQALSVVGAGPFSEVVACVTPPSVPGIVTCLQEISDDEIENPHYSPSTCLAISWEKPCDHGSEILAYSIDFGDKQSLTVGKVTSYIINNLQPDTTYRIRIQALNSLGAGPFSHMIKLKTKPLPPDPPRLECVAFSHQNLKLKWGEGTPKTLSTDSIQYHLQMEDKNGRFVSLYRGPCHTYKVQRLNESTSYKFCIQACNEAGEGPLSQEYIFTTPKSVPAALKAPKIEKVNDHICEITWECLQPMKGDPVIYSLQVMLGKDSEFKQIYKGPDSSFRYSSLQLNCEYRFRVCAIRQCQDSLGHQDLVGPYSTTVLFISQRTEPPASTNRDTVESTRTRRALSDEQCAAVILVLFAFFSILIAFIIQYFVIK
UniProt P0C5J1: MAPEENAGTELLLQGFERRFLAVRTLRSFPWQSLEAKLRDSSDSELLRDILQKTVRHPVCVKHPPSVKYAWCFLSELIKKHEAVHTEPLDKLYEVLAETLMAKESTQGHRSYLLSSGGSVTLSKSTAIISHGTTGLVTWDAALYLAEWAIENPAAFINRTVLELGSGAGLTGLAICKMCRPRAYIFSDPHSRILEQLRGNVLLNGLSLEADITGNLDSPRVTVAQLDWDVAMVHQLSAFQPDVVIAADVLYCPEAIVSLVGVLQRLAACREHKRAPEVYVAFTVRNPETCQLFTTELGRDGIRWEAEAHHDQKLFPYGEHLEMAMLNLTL
UniProt Q9HB96: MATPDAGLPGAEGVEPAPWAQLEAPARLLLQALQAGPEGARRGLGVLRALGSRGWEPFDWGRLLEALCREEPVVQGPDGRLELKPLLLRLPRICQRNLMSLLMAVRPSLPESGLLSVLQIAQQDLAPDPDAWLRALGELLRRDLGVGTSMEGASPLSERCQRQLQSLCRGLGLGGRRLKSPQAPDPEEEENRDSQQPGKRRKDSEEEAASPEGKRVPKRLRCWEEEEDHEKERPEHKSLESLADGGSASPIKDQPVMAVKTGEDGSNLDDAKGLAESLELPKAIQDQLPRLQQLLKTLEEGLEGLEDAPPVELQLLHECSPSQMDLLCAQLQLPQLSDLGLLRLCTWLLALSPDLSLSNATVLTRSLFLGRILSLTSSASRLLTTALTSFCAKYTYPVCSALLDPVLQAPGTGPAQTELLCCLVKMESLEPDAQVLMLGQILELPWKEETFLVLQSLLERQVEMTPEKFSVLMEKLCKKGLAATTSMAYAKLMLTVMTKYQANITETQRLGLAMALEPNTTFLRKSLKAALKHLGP
UniProt Q9NPI8: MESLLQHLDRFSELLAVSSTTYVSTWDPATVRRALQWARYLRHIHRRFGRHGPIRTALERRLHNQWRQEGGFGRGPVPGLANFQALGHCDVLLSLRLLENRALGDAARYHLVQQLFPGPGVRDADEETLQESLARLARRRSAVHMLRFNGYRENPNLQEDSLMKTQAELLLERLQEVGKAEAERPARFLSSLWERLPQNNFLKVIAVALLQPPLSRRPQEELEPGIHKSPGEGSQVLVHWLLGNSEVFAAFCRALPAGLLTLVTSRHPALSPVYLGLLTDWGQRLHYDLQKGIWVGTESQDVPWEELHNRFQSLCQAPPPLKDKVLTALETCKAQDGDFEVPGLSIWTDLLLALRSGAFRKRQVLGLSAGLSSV

Tests used:
Assay in all cases: log2 fold change, soluble protein after heating vs DMSO (PISA); higher = thermal stabilisation; K562 lysate, 10 uM; active = over 0.2 and 3.5 SD of the protein, either way, in both replicates (recomputed)
erlotinib = compound: C#Cc1cccc(Nc2ncnc3cc(OCCOC)c(OCCOC)cc23)c1 [erlotinib]
Outline: (§1)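 K562 pellets were dounce-homogenised in PBS pH 7.4 containing 1 mM MgCl2, and the crude extract, at 1 mg/mL protein, was exposed to 10 μM compound for 30 min. Aliquots were heated for 3 min across 48°C-58°C, pooled, brought to 0.5% NP-40 at 4°C and spun at 21,000xg for 90 min, with the supernatant taken as soluble protein. TMTpro 16plex LC-MS/MS with equalised channel sums quantified that protein. Values are log-two fold changes in thermal stability relative to solvent controls, taken from duplicates.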

[1] = compound: C1=CC(=CC=C1C2=NC3=C(N2)C=C(C=C3)C(=O)N)OC4=CC=C(C=C4)Cl
Outline: as §1

[2] = compound: C1CCN(C1)C(=O)NC2=CC=CC(=C2)NC3=NC=C(C(=N3)NCCC4=CN=CN4)Br
Outline: as §1

[3] = compound: C1CN(CCC1(CC2=CC=C(C=C2)Cl)N)C3=NC=NC4=C3C=CN4
Outline: as §1

[4] = compound: CC(=O)c1cnc2ccc(-c3cc(Cl)c(O)c(Cl)c3)nc2c1N[C@H]1CC[C@H](CN(C)C)CC1
Outline: as §1

[5] = compound: CC(C)C1=C2N=C(C=C(N2N=C1)NCC3=CC=CC=C3)NCCCCCCN
Outline: as §1

[6] = compound: CC1=C(C2=C(C=C1)C(=O)C3=CC=CC=C3N2CCCN)C
Outline: as §1

[7] = compound: CC1=C(C=C(C=C1)NC(=O)C2=CC(=CC=C2)C(C)(C)C#N)NC3=CC4=C(C=C3)N=CN(C4=O)C
Outline: as §1

[8] = compound: CC1=CC=C(C=C1)SC2=C3C=C(SC3=CN=C2)C(=O)N
Outline: as §1

[9] = compound: C/C(=N\NC(=O)C1=CC(=CC=C1)S(=O)(=O)N2CCOCC2)/C3=C(C=CC(=C3)Cl)O
Outline: as §1

[10] = compound: C1=CC2=C(C=CC(=C2)/C=C\3/C(=O)NC(=NCC4=CC=CS4)S3)N=C1
Outline: as §1

[11] = compound: C1=CC=C(C=C1)C2=NC(=C(N2)C3=CC=NC=C3)C4=CC(=C(C=C4)Cl)O
Outline: as §1

[12] = compound: C1=CC=C2C(=C1)C3=NNC4=CC=CC(=C43)C2=O
Outline: as §1

IRAK-1-4 Inhibitor I = compound: C1COCCN1CCN2C3=CC=CC=C3N=C2NC(=O)C4=CC(=CC=C4)[N+](=O)[O-] [IRAK-1-4 Inhibitor I]
Outline: as §1

ralimetinib = compound: CC(C)(C)Cn1c(N)nc2ccc(-c3[nH]c(C(C)(C)C)nc3-c3ccc(F)cc3)nc21 [ralimetinib]
Outline: as §1

[13] = compound: CC(C)(O)CC(=O)NCCn1ccc2ncnc(Nc3ccc(Oc4cccc(C(F)(F)F)c4)c(Cl)c3)c21
Outline: as §1

[14] = compound: CC1=C(C=C(C=C1)NC(=O)C2=CC(=CC=C2)N(C)C)NC(=O)C3=CC=C(C=C3)O
Outline: as §1

[15] = compound: C1=CC2=NC=CN=C2C=C1/C=C/3\C(=O)NC(=O)S3
Outline: as §1

ibrutinib = compound: C=CC(=O)N1CCC[C@@H](n2nc(-c3ccc(Oc4ccccc4)cc3)c3c(N)ncnc32)C1 [ibrutinib]
Outline: as §1

[16] = compound: CC1=C(C(CC(=O)N1)C2=CC=C(C=C2)C(F)(F)F)C(=O)NC3=C(C=C4C(=C3)C=NN4)F
Outline: as §1

Measured: log2 fold change

FAXDC2 (UniProt Q96IV6)
inactive: erlotinib -0.02 | [1] -0.063 | [2] 0.097 | [3] 0.066 | [4] -0.088 | [5] -0.032 | [6] -0.103 | [7] 0.098 | [8] -0.274

FKRP (UniProt Q9H9S5)
inactive: erlotinib 0.145 | [9] -0.029 | [1] 0.053 | [10] -0.086 | [11] 0.037 | [12] 0.026 | [2] -0.153 | [3] -0.042 | IRAK-1-4 Inhibitor I -0.034 | [4] 0.114 | ralimetinib -0.042 | [13] -0.015 | [5] -0.1 | [6] -0.086 | [7] 0.05 | [14] -0.017 | [8] 0.028

FLT4 (UniProt P35916)
inactive: erlotinib 0.047 | [9] 0.036 | [1] 0.038 | [10] 0.039 | [15] 0.075 | [11] 0.046 | [12] 0.044 | [2] -0.097 | [3] 0.087 | IRAK-1-4 Inhibitor I -0.029 | ibrutinib 0.062 | [4] 0.064 | ralimetinib 0.012 | [13] -0.005 | [5] -0.057 | [6] 0.038 | [14] -0.019 | [8] 0.005

FMC1 (UniProt Q96HJ9)
inactive: erlotinib -0.023 | [9] -0.106 | [1] 0.002 | [10] -0.032 | [15] 0.019 | [11] 0.109 | [12] 0.037 | [2] 0.099 | [3] -0.14 | IRAK-1-4 Inhibitor I -0.02 | ibrutinib -0.071 | [4] -0.06 | ralimetinib 0.119 | [13] 0.077 | [5] -0.026 | [6] -0.028 | [7] 0.027 | [14] -0.102 | [8] 0.027

FMNL2 isoform 3 (UniProt Q96PY5)
inactive: erlotinib -0.02 | [1] -0.064 | [11] 0.083 | IRAK-1-4 Inhibitor I -0.092 | [4] -0.048 | ralimetinib -0.02 | [13] 0.185 | [5] 0.065 | [16] -0.056 | [6] 0.071 | [7] 0.116 | [14] 0.048 | [8] -0.003

FBXO46 (UniProt Q6PJ61)
inactive: [9] -0.044 | [10] 0.089 | [15] -0.008 | [11] 0.004 | [12] 0.126 | [2] -0.124 | [3] -0.016 | IRAK-1-4 Inhibitor I -0.056 | ibrutinib 0.001 | [4] -0.053 | ralimetinib 0.051 | [13] 0.087 | [16] 0.026 | [6] 0.002 | [7] -0.009 | [14] 0.053 | [8] -0.043

FANCC (UniProt Q00597)
inactive: erlotinib 0.115 | [1] -0.021 | [11] -0.003 | IRAK-1-4 Inhibitor I 0.291 | [4] -0.048 | ralimetinib -0.14 | [13] -0.331 | [5] -0.001 | [7] -0.093 | [14] 0.026 | [8] 0.114

FMR1 isoform 9 (UniProt Q06787)
inactive: erlotinib -0.013 | [1] -0.058 | [15] -0.115 | [11] -0.074 | IRAK-1-4 Inhibitor I -0.056 | ibrutinib 0.105 | [4] 0.011 | ralimetinib -0.138 | [13] -0.026 | [5] -0.009 | [6] 0.071 | [7] -0.048 | [14] 0.17 | [8] 0.149

FBRS (UniProt J3KNZ9)
inactive: erlotinib 0.012 | [9] -0.088 | [1] 0.1 | [10] -0.153 | [15] 0.087 | [11] -0.003 | [12] 0.01 | [2] 0 | [3] 0.054 | IRAK-1-4 Inhibitor I 0 | ibrutinib -0.044 | ralimetinib 0.033 | [13] 0.052 | [5] -0.026 | [16] 0.068 | [6] -0.056 | [7] -0.115 | [14] -0.046

FNDC3A (UniProt Q9Y2H6)
inactive: erlotinib 0.198 | [1] 0.024 | [11] -0.112 | IRAK-1-4 Inhibitor I 0.04 | ralimetinib 0.118 | [13] -0.207 | [5] -0.093 | [16] 0.31 | [7] 0.027 | [14] 0.113

Retrieved one by one from above (two):
FBXO46 (UniProt Q6PJ61)
inactive: [9] -0.044 | [10] 0.089 | [15] -0.008 | [11] 0.004 | [12] 0.126 | [2] -0.124 | [3] -0.016 | IRAK-1-4 Inhibitor I -0.056 | ibrutinib 0.001 | [4] -0.053 | ralimetinib 0.051 | [13] 0.087 | [16] 0.026 | [6] 0.002 | [7] -0.009 | [14] 0.053 | [8] -0.043

FBRS (UniProt J3KNZ9)
inactive: erlotinib 0.012 | [9] -0.088 | [1] 0.1 | [10] -0.153 | [15] 0.087 | [11] -0.003 | [12] 0.01 | [2] 0 | [3] 0.054 | IRAK-1-4 Inhibitor I 0 | ibrutinib -0.044 | ralimetinib 0.033 | [13] 0.052 | [5] -0.026 | [16] 0.068 | [6] -0.056 | [7] -0.115 | [14] -0.046

(further entries)

FAM86B2 (UniProt P0C5J1)
inactive: [9] 0.045 | [10] 0.021 | [15] 0.01 | [11] 0.142 | [12] 0.029 | IRAK-1-4 Inhibitor I 0.079 | ibrutinib -0.019 | [4] -0.195 | ralimetinib -0.108 | [13] 0.084 | [16] -0.243 | [14] -0.095 | [8] -0.118

FBXW11 (UniProt Q9UKB1)
inactive: erlotinib 0.007 | [1] 0.159 | [15] -0.011 | [11] -0.029 | [2] -0.063 | [3] 0.127 | IRAK-1-4 Inhibitor I 0.031 | ibrutinib 0.008 | [4] -0.113 | ralimetinib 0.003 | [13] 0 | [5] -0.151 | [6] -0.047 | [7] 0.009 | [14] 0.045 | [8] 0.071

FANCE (UniProt Q9HB96)
inactive: [4] 0.153 | [16] -0.045 | [6] -0.115 | [7] -0.013 | [8] 0.045

FASN, A0A0U1RRG3
inactive: [4] 0.555 | [8] 0.206

FANCF (UniProt Q9NPI8)
inactive: [7] -0.1
